Experimental data taken from EP4840470A1, “ANTIBODY-DRUG CONJUGATE AND USE THEREOF” (dated 2026).
pIC50: −log10 of the molar value. Structures were worked out from names or drawings and are uncertain.

Experiments:
Test in all cases: Proliferation of KRAS mutant cells, drug P compounds (Activity Example 6)
A375 (WT) = system: A375 (WT)
Method: (§1) A sterile 1% methylcellulose 3D culture medium was prepared in advance. Cells in the logarithmic growth phase were harvested, and cell counting and viability assessment were performed using a Countstar automatic cell counter based on the classical trypan blue staining principle, ensuring that cell viability was above 90%. Cell concentrations for GP2D, HPAC, AsPC-1, KP-4, and Panc 04.03 were adjusted to a final methylcellulose (Sigma, 9004-67-5) concentration of 0.65%, mixed, and allowed to stand until no visible air bubbles. 80 µL of cell suspension (1000-2000 cells) was added to a 96-well plate (Corning, 3603). The cells in the 96-well plate were cultured overnight at 37 °C, 5% CO2, and 95% humidity (Thermo Scientific, Model 371 Series).
(§2) Preparation of drug for IC50 assay: 10 mM DMSO stock solutions of each compound were prepared. First dilution in DMSO to 5 mM, then 3-fold serial dilution to 9 concentrations to prepare DMSO solutions of different concentrations for each compound. Second 1:100 dilution (phosphate-buffered saline DPBS, Corning, 21-031-CVC) was used to prepare a 5x dilution of each compound, using complete medium as solvent. Finally, 20 µL of each compound dilution was added per well to the cell-seeded plates, with a final top concentration of 10 µM, 9 concentrations, 3-fold dilution, two replicate wells per drug concentration.
(§3) The treated plates were incubated at 37 °C, 5% CO2 for 120 hours, followed by CTG analysis (CellTiter-Glo® Luminescent Cell Viability Assay, Promega, Cat# G7573). CTG reagent was thawed, and cell plates were equilibrated to room temperature for 30 minutes. 75 µL of CTG solution was added per well. Plates were shaken on an orbital shaker for 5 minutes to lyse cells, then placed at room temperature for 20 minutes to stabilize the luminescent signal. Luminescence was read (EnVision Multimode Plate Reader, PerkinElmer #2105). Data were analyzed using GraphPad Prism 9.0 software, and dose-response curves were fitted by nonlinear S-curve regression to calculate IC50 values (nM). Cell viability (%) = (Lumtest drug−Lummedium control)/(Lumvehicle control−Lummedium control) × 100% [formula]
(§4) Following essentially the same experimental method and procedure as Activity Example 5, the inhibitory effect of representative drug P unit compounds of ADC of the present disclosure on proliferation of KRAS mutant cells was tested in cell lines H358, H727, A549, GP2D, MKN1 (purchased from Nanjing Kebai Biotechnology Co., Ltd.) and cell lines A375 and HCT116 (purchased from Cell Bank of the Chinese Academy of Sciences): […]

H727 (G12V) = system: H727 (G12V)
Method: as §1, §2, §3, §4

MKN1 (WT, amp) = system: MKN1 (WT, amp)
Method: as §1, §2, §3, §4

HCT116 (G13D) = system: HCT116 (G13D)
Method: as §1, §2, §3, §4

H358 (G12C) = system: H358 (G12C)
Method: as §1, §2, §3, §4

A549 (G12S) = system: A549 (G12S)
Method: as §1, §2, §3, §4

GP2D (G12D) = system: GP2D (G12D)
Method: as §1, §2, §3, §4

pIC50 (A375 (WT)): < 7.00
pIC50 (H727 (G12V)): > 8.30
pIC50 (MKN1 (WT, amp)): > 8.30
pIC50 (HCT116 (G13D)): 7.00 to 8.30
pIC50 (H358 (G12C)): > 8.30
pIC50 (A549 (G12S)): < 7.00
Structure (SMILES): CCN1CC/C(=C\F)[C@](C)(COc2nc(N3Cc4c(COC)c(C(=O)N(C)C)nn4CC[C@@H]3C)c3cc(C(F)(F)F)c(-c4c(F)ccc5sc(N)c(C#N)c45)c(F)c3n2)C1
pIC50 (GP2D (G12D)): > 8.30
